From publication PMC5059743, “Crystal structures of the human elongation factor eEFSec suggest a non-canonical mechanism for selenocysteine incorporation” (Nature Communications, 2016)
These are yes or no findings as the source states them, for the method shown.

Columns and labels:
[1] = biological target: human eEFSec (selenocysteine-specific translation elongation factor), wild type (human) (UniProt P57772); test: crystal structure; asymmetric unit of eEFSec:GDPCP and eEFSec:GDPNP (head-to-head dimer) and of eEFSec:GDP (head-to-tail dimer); sitting-drop vapor diffusion at +12 °C; both purified
[2] = biological target: human eEFSec T48A variant (human) (UniProt P57772); test: SEC; variants purified on Ni2+-affinity and size-exclusion columns; stored in 50 mM HEPES pH 7.5, 250 mM NaCl, 0.5 mM TCEP, 5 mM MgCl2; both purified
[3] = biological target: human eEFSec D92A variant (human) (UniProt P57772); test: as above
[4] = biological target: human eEFSec H96A variant (human) (UniProt P57772); test: as above

B1: human eEFSec (selenocysteine-specific translation elongation factor), wild type (protein, UniProt P57772 1-596)
chain: MAGRRVNVNVGVLGHIDSGKTALARALSTTASTAAFDKQPQSRERGITLDLGFSCFSVPLPARLRSSLPEFQAAPEAEPEPGEPLLQVTLVDCPGHASLIRTIIGGAQIIDLMMLVIDVTKGMQTQSAECLVIGQIACQKLVVVLNKIDLLPEGKRQAAIDKMTKKMQKTLENTKFRGAPIIPVAAKPGGPEAPETEAPQGIPELIELLTSQISIPTRDPSGPFLMSVDHCFSIKGQGTVMTGTILSGSISLGDSVEIPALKVVKKVKSMQMFHMPITSAMQGDRLGICVTQFDPKLLERGLVCAPESLHTVHAALISVEKIPYFRGPLQTKAKFHITVGHETVMGRLMFFSPAPDNFDQEPILDSFNFSQEYLFQEQYLSKDLTPAVTDNDEADKKAGQATEGHCPRQQWALVEFEKPVTCPRLCLVIGSRLDADIHTNTCRLAFHGILLHGLEDRNYADSFLPRLKVYKLKHKHGLVERAMDDYSVIGRSLFKKETNIQLFVGLKVHLSTGELGIIDSAFGQSGKFKIHIPGGLSPESKKILTPALKKRARAGRGEATRQEESAERSEPSQHVVLSLTFKRYVFDTHKRMVQSP
binding [1]: no binding

B2: human eEFSec T48A variant (protein, UniProt P57772 1-596)
chain: MAGRRVNVNVGVLGHIDSGKTALARALSTTASTAAFDKQPQSRERGIALDLGFSCFSVPLPARLRSSLPEFQAAPEAEPEPGEPLLQVTLVDCPGHASLIRTIIGGAQIIDLMMLVIDVTKGMQTQSAECLVIGQIACQKLVVVLNKIDLLPEGKRQAAIDKMTKKMQKTLENTKFRGAPIIPVAAKPGGPEAPETEAPQGIPELIELLTSQISIPTRDPSGPFLMSVDHCFSIKGQGTVMTGTILSGSISLGDSVEIPALKVVKKVKSMQMFHMPITSAMQGDRLGICVTQFDPKLLERGLVCAPESLHTVHAALISVEKIPYFRGPLQTKAKFHITVGHETVMGRLMFFSPAPDNFDQEPILDSFNFSQEYLFQEQYLSKDLTPAVTDNDEADKKAGQATEGHCPRQQWALVEFEKPVTCPRLCLVIGSRLDADIHTNTCRLAFHGILLHGLEDRNYADSFLPRLKVYKLKHKHGLVERAMDDYSVIGRSLFKKETNIQLFVGLKVHLSTGELGIIDSAFGQSGKFKIHIPGGLSPESKKILTPALKKRARAGRGEATRQEESAERSEPSQHVVLSLTFKRYVFDTHKRMVQSP
binding [2]: no binding

B3: human eEFSec D92A variant (protein, UniProt P57772 1-596)
chain: MAGRRVNVNVGVLGHIDSGKTALARALSTTASTAAFDKQPQSRERGITLDLGFSCFSVPLPARLRSSLPEFQAAPEAEPEPGEPLLQVTLVACPGHASLIRTIIGGAQIIDLMMLVIDVTKGMQTQSAECLVIGQIACQKLVVVLNKIDLLPEGKRQAAIDKMTKKMQKTLENTKFRGAPIIPVAAKPGGPEAPETEAPQGIPELIELLTSQISIPTRDPSGPFLMSVDHCFSIKGQGTVMTGTILSGSISLGDSVEIPALKVVKKVKSMQMFHMPITSAMQGDRLGICVTQFDPKLLERGLVCAPESLHTVHAALISVEKIPYFRGPLQTKAKFHITVGHETVMGRLMFFSPAPDNFDQEPILDSFNFSQEYLFQEQYLSKDLTPAVTDNDEADKKAGQATEGHCPRQQWALVEFEKPVTCPRLCLVIGSRLDADIHTNTCRLAFHGILLHGLEDRNYADSFLPRLKVYKLKHKHGLVERAMDDYSVIGRSLFKKETNIQLFVGLKVHLSTGELGIIDSAFGQSGKFKIHIPGGLSPESKKILTPALKKRARAGRGEATRQEESAERSEPSQHVVLSLTFKRYVFDTHKRMVQSP
binding [3]: no binding

B4: human eEFSec H96A variant (protein, UniProt P57772 1-596)
chain: MAGRRVNVNVGVLGHIDSGKTALARALSTTASTAAFDKQPQSRERGITLDLGFSCFSVPLPARLRSSLPEFQAAPEAEPEPGEPLLQVTLVDCPGAASLIRTIIGGAQIIDLMMLVIDVTKGMQTQSAECLVIGQIACQKLVVVLNKIDLLPEGKRQAAIDKMTKKMQKTLENTKFRGAPIIPVAAKPGGPEAPETEAPQGIPELIELLTSQISIPTRDPSGPFLMSVDHCFSIKGQGTVMTGTILSGSISLGDSVEIPALKVVKKVKSMQMFHMPITSAMQGDRLGICVTQFDPKLLERGLVCAPESLHTVHAALISVEKIPYFRGPLQTKAKFHITVGHETVMGRLMFFSPAPDNFDQEPILDSFNFSQEYLFQEQYLSKDLTPAVTDNDEADKKAGQATEGHCPRQQWALVEFEKPVTCPRLCLVIGSRLDADIHTNTCRLAFHGILLHGLEDRNYADSFLPRLKVYKLKHKHGLVERAMDDYSVIGRSLFKKETNIQLFVGLKVHLSTGELGIIDSAFGQSGKFKIHIPGGLSPESKKILTPALKKRARAGRGEATRQEESAERSEPSQHVVLSLTFKRYVFDTHKRMVQSP
binding [4]: no binding
